PubChem BioAssay AID1259254, NCATS | 2017
Assay: 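Genome-wide screen for genes that prevent DNA re-replication in cancer cells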 (primary screen). Cells: human HCT116 colorectal cancer cells. Reagents: single siRNA against human genes. Duration: 3 days. Measurement: 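Nuclei stained with Hoechst and imaged; cell-cycle phase assigned by DNA content; G2 share scaled per plate, non-targeting siRNA 0%, GMNN siRNA 100%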. Scale: G2 robust z-score and G2 cells, % of GMNN control: higher = more G2 cells, more excess DNA replication; raw share of cells in G2: higher = larger share of cells with G2 DNA content. Active means: 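An siRNA counts as active if its G2 robust z-score lies at least 5 MADs above the screen median; here such calls match roughly 38% of GMNN control or more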.
This is an unselected part of about 59,000 reagents tested. Of all reagents, about 1,550 (2.6%) are marked active. 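G2 share is only a proxy for re-replication; each gene was hit by three separate siRNAs, and active genes were retested.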 Raw values are not corrected between plates. Reagents against one gene are numbered here. The record does not give: the amount of reagent.

no.	target gene	reagent no.	G2 robust z-score	G2 cells, % of GMNN control	raw share of cells in G2 (%)	Call
1	OXLD1	1	1.46	13.2	9.05	inactive
2	OXLD1	2	-1.2	-5.45	2	inactive
3	OXLD1	3	-0.938	-3.63	2.74	inactive
4	FBN1	1	-0.575	-1.08	4.84	inactive
5	FBN1	2	0.383	5.66	7.42	inactive
6	FBN1	3	6.66	49.8	21.4	active
7	TARDBP	1	-0.799	-2.66	2.96	inactive
8	TARDBP	2	-0.694	-1.92	3.51	inactive
9	TARDBP	3	4.83	36.9	21.2	inactive
10	ZNF284	1	-0.158	1.86	3.73	inactive
11	ZNF284	2	0.426	5.97	5.24	inactive
12	ZNF284	3	-0.335	0.61	3.74	inactive
13	TMEM204	1	-0.594	-1.21	3.94	inactive
14	TMEM204	2	0.0847	3.56	5.86	inactive
15	TMEM204	3	-0.366	0.39	2.48	inactive
16	FAM110A	1	-0.486	-0.454	2.27	inactive
17	FAM110A	2	-1.06	-4.48	2.62	inactive
18	FAM110A	3	0.0599	3.39	4.46	inactive
19	TP53TG5	1	0.768	8.37	5.89	inactive
20	TP53TG5	2	-0.923	-3.53	2.51	inactive
21	TP53TG5	3	-0.545	-0.869	4.22	inactive
22	MTERF1	1	0.797	8.57	7.45	inactive
23	MTERF1	2	-0.348	0.522	5.82	inactive
24	MTERF1	3	0.715	8	7.11	inactive
25	FCGR2B	1	-0.769	-2.44	2.79	inactive
26	FCGR2B	2	0.447	6.11	7.59	inactive
27	FCGR2B	3	-1.01	-4.11	3.74	inactive
28	FZD6	1	-0.136	2.01	6.56	inactive
29	FZD6	2	-0.397	0.175	4.58	inactive
30	FZD6	3	0.295	5.04	4.82	inactive
31	LOC653303	1	4.15	32.2	12.3	inactive
32	LOC653303	2	0.661	7.62	6.64	inactive
33	LOC653303	3	-0.34	0.578	3.39	inactive
34	SPATA46	1	0.784	8.48	6.73	inactive
35	SPATA46	2	-0.761	-2.39	2.12	inactive
36	SPATA46	3	-0.404	0.124	3.3	inactive
37	LCE1C	1	0.759	8.31	6.18	inactive
38	LCE1C	2	-0.228	1.36	3.55	inactive
39	LCE1C	3	2.51	20.6	12.1	inactive
40	GARIN3	1	1.68	14.8	7.43	inactive
41	GARIN3	2	0.31	5.15	5.45	inactive
42	GARIN3	3	-0.779	-2.51	2.12	inactive
43	AGRN	1	-0.563	-0.997	3.43	inactive
44	AGRN	2	-0.997	-4.05	1.65	inactive
45	AGRN	3	0.0774	3.51	6.14	inactive
46	C1QTNF2	1	0.536	6.74	5.41	inactive
47	C1QTNF2	2	7.41	55.1	22.3	active
48	C1QTNF2	3	-0.552	-0.915	3.2	inactive
49	ATRN	1	-0.557	-0.95	4.37	inactive
50	ATRN	2	-1.61	-8.33	2.34	inactive
51	ATRN	3	-0.338	0.588	4.8	inactive
52	TRMT112	1	-0.551	-0.911	3.28	inactive
53	TRMT112	2	-0.329	0.656	4.55	inactive
54	TRMT112	3	-0.619	-1.39	2.73	inactive
55	OR52M1	1	0.0744	3.49	5.49	inactive
56	OR52M1	2	1.38	12.6	7.1	inactive
57	OR52M1	3	2.72	22.1	8.27	inactive
58	CORT	1	-0.307	0.808	5.68	inactive
59	CORT	2	-0.871	-3.16	2.93	inactive
60	CORT	3	-1.06	-4.5	1.76	inactive
61	AEBP2	1	1.76	15.4	8.38	inactive
62	AEBP2	2	-0.247	1.23	3.59	inactive
63	AEBP2	3	0.386	5.68	5.52	inactive
64	NELL2	1	-0.4	0.156	3.25	inactive
65	NELL2	2	1.55	13.8	10.7	inactive
66	NELL2	3	-1.14	-5.04	3.47	inactive
67	MAPK13	1	-1.36	-6.63	3.42	inactive
68	MAPK13	2	-1.03	-4.28	3.97	inactive
69	MAPK13	3	-0.345	0.542	4.22	inactive

Active calls (from the list above):
target gene	reagent no.	G2 robust z-score	G2 cells, % of GMNN control	raw share of cells in G2 (%)	Call
FBN1	3	6.66	49.8	21.4	active
C1QTNF2	2	7.41	55.1	22.3	active
